Experimental data from PubChem BioAssay AID662 (National Center for Advancing Translational Sciences (NCATS), 2007).
Where “and” joins values, the source holds several entries; their conditions need not be identical. Equal entries are not always repeated. The list shows a part of the results. Further columns of the screen follow, without active or inactive calls. Most of these compounds were active or inconclusive in the main read-out, so they are no random draw. The note in brackets gives the kind of curve behind each potency; many fits are weak.

Assay: Cell signaling CRE-BLA (Fsk stim)
Conditions: CHO CRE-bla reporter (cAMP response element driving beta-lactamase), forskolin EC10, beta-lactamase ratio; measured here: 460 nm blue channel
Summary of the method: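 Titrated compounds plus EC10 NKH 477 on CHO CRE-bla cells, 3 h, 37 °C. CCF4, 2 h RT. Ratio 460/530 nm → AC50.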

SMILES | AC50
CC(C(=O)N1c2ccccc2Sc2ccccc21)n1nnc(-c2cccs2)n1 (stereo not drawn) | 20 µM [falling, partial curve, poor fit]
CC(=O)Nc1ccc(SCC(=O)OCC(=O)NC(=O)NCc2ccco2)cc1 | 0.251 µM [falling, partial curve]
CCn1c(NC(=O)c2cccs2)nc2ccccc21 | 6.31 µM [falling, partial curve]
O=c1[nH]c2cc(Cl)cc(Cl)c2[nH]c1=O | 3.16 µM [falling, single point]
CSc1ccccc1N=Cc1nc(-c2ccccc2)oc1O | 15.8 µM [rising, single point]
COC(=O)Cn1cnc2sc(C)c(S(=O)(=O)N3CCC(C)CC3)c2c1=O | 0.00398 µM [falling, full curve, poor fit]
COc1ccccc1C1C=C(c2ccc(Cl)cc2)Nc2nc(N3C(=O)CCC3=O)nn21 (stereo not drawn) | 25.1 µM [rising, single point]
COC(=O)C1=CNC=C(C(=O)OC)C1c1ccc(Cl)cc1 | 10 µM [rising, partial curve]
O=C(OCC(=O)N1CCCC1)c1cncc(Br)c1 | 5.01 µM [falling, single point]
CC1CCC/C(=C\Nc2ccc(O)cc2)C1=O (stereo not drawn) | 0.2 µM [falling, full curve]
O=C(OCC1COc2ccccc2O1)c1ccccc1F (stereo not drawn) | 5.01 µM [falling, single point]
Cc1cccc(N2CCN(C(=O)Cn3sc4nc(C)cc(C)c4c3=O)CC2C)c1 (stereo not drawn) | 25.1 µM [falling, single point]
COc1ccccc1-n1c(=S)sc2c(=O)n(Cc3ccco3)c(SC)nc21 | 3.16 µM [rising, partial curve]
CCOC(=O)N1CCN(Cc2nc3c(c(=O)n(C)c(=O)n3C)n2Cc2ccc(F)cc2)CC1 | 12.6 µM [rising, partial curve]
CCOC(=O)N1CCC(NC(=O)c2cccc3c2C(=O)N(c2ccc(OC)cc2)C3)CC1 | 5.01 µM [rising, partial curve]
C=CCn1c(-c2ccc(OC)c(OC)c2)cs/c1=N\c1ccccn1 | 25.1 µM [rising, single point]
CC(C)(C)c1cnnn1-c1ccc(NC(=O)c2ccc(Br)o2)cc1 | 10 µM [rising, single point]
CN(Cc1ccccc1)c1nc2c(c(=O)[nH]c(=O)n2C)n1CCOc1ccccc1 | 10 µM [rising, partial curve]
COC(=O)[C@@H](NC(=O)Nc1ccc(C(C)=O)cc1)C(C)C | 3.98 µM [falling, full curve, poor fit]
CC1(Cc2cn(CCC#N)c3ccccc23)OCCO1 | 6.31 µM [rising, partial curve]
Cc1cccc(-n2cnc3cc(C(=O)N4CCCCC4)ccc32)c1 | 25.1 µM [rising, single point]
CCCNC(=O)NC(=O)COC(=O)c1ccc(OC)c(S(=O)(=O)N2CCCc3ccccc32)c1 | 20 µM [falling, single point]
CC(=O)Nc1ccc(N2CCOCC2)c(C(=O)Nc2cccc(C)c2)c1 | 5.01 µM [falling, single point]

SMILES | AC50
Cc1ccc2cc(C)c3nnc(SCC(=O)NCc4ccco4)n3c2c1 | 10 µM [rising, single point]
CS(=O)(=O)N1CCc2cc(-c3csc(NC(=O)Cc4cccs4)n3)ccc21 | 25.1 µM [falling, single point]
COC(=O)c1ccc(CSc2ncnc3c2oc2ccccc23)o1 | 3.16 µM [rising, full curve]
Cc1ccc(SCc2cc(=O)[nH]c(N3CCN(Cc4ccccc4)CC3)n2)cc1 | 12.6 µM [falling, single point]
CC(=O)c1c(C)nc2nonc2c1N | 12.6 µM [rising, single point]
C[N+]1(C)CCO[C@](O)(c2ccccc2)C1 | 3.98 µM [rising, partial curve]
CCOC(=O)c1ccccc1NC(=O)c1c(F)c(F)c(F)c(F)c1F | 0.00316 µM [falling, full curve, poor fit]
COc1cccc(C(c2nnnn2Cc2ccc(F)cc2)N2CCC(C(N)=O)CC2)c1OC (stereo not drawn) | 10 µM [falling, partial curve, poor fit]
Cc1cc(C)cc(Nc2cc(=O)n(C3CCCCC3)c(=O)[nH]2)c1 | 3.16 µM [rising, single point]
CCOc1ccc(-c2nnc(-c3cccnc3)o2)cc1OCC | 15.8 µM [rising, single point]
NC(=O)CNC(=O)C1CCCc2c1[nH]c1ccc(Cl)cc21 (stereo not drawn) | 7.94 µM [falling, partial curve]
Cc1noc(C)c1COC(=O)c1cc(C)n(-c2ccccc2)c1C | 6.31 µM [rising, partial curve]
COc1ccc(C)cc1-n1nnnc1SCc1nc2ccccc2s1 | 1.58 µM [falling, partial curve]
Fc1ccc(Br)cc1C1C=C(c2ccc(Br)s2)Nc2ncnn21 (stereo not drawn) | 12.6 µM [rising, single point]
O=C(NCCc1c[nH]c2ccccc12)c1ccc(S(=O)(=O)NCc2ccco2)cc1 | 7.94 µM [falling, partial curve]
COc1ccc(OC)c(C(=O)CC2OC(=O)c3ccccc32)c1 (stereo not drawn) | 0.794 µM [falling, partial curve]
CCN(CCNC(=O)C1CCN(Cc2nc(-c3ccc(Cl)cc3)oc2C)CC1)c1ccccc1 | 0.0158 µM [falling, full curve, poor fit]
CCC(=O)N1c2ccc(S(=O)(=O)CCC(=O)NC3CCCC3)cc2CC1C (stereo not drawn) | 0.126 µM [falling, full curve]
O=C(Nc1ccc2nc(-c3cccs3)c(-c3cccs3)nc2c1)N1CCOCC1 | 12.6 µM [rising, partial curve]
COc1ccccc1-n1c(CNC(=O)c2ccco2)nnc1SCC(=O)Nc1cc(C)ccc1C | 12.6 µM [rising, single point]
Cc1cc(C)c2nc(SCC#N)cc(C)c2c1 | 12.6 µM [rising, single point]
COc1ccc(N2CCN(c3nc4c(c(=O)[nH]c(=O)n4C)n3Cc3ccccc3Cl)CC2)cc1 | 3.98 µM [rising, full curve, poor fit]
CCCN(CCC)c1nc(C)cc(C(C#N)c2nc3ccccc3o2)n1 (stereo not drawn) | 5.01 µM [rising, partial curve]

Fetched by structure from the entries so far:
SMILES | AC50
CC(=O)c1c(C)nc2nonc2c1N | 12.6 µM [rising, single point]
COc1ccc(OC)c(C(=O)CC2OC(=O)c3ccccc32)c1 (stereo not drawn) | 0.794 µM [falling, partial curve]
CCCN(CCC)c1nc(C)cc(C(C#N)c2nc3ccccc3o2)n1 (stereo not drawn) | 5.01 µM [rising, partial curve]
Cc1cc(C)c2nc(SCC#N)cc(C)c2c1 | 12.6 µM [rising, single point]
CCOc1ccc(-c2nnc(-c3cccnc3)o2)cc1OCC | 15.8 µM [rising, single point]

Later entries:

SMILES | AC50
CCOC(=O)C1CCN(S(=O)(=O)c2cccc(-c3cn4cccnc4n3)c2)CC1 | 12.6 µM [falling, single point]
Oc1ccc(Cc2nccc3cc(O)c(O)cc23)cc1O | 3.98 µM [rising, single point]
O=C(c1cc2c(s1)-c1ccccc1OC2)N1CCN(c2ccccn2)CC1 | 7.94 µM [rising, partial curve]
O=C(c1ccc(F)cc1)C(CN1CCOCC1)c1ccccc1 (stereo not drawn) | 3.16 µM [falling, full curve]
C=CC(=O)OCCOCCOCCOCCOC(=O)C=C | 12.6 µM [falling, partial curve] and 7.94 µM [falling, full curve]
COc1ccc(/C(CC2(O)C(=O)Nc3ccccc32)=N\O)cc1 (stereo not drawn) | 0.126 µM [falling, full curve]
COc1ccc(CN(Cc2nc3ccccc3c(=O)[nH]2)C(=O)NC2CCCCC2)cc1 | 5.01 µM [rising, full curve]
Cc1nnc(NC(=O)CSc2nnc(Cc3ccccc3)n2Cc2ccccc2)s1 | 12.6 µM [rising, partial curve]
COc1cc(NC(=O)CSc2nccc(C)n2)c(C(=O)O)cc1OC | 25.1 µM [falling, single point]
O=c1c(-c2ccc(Cl)cc2)nc2cnc(Nc3ccccc3)nc2n1C1CC1 | 10 µM [rising, partial curve]
CCC(CC)C(=O)Nc1cc(C(=O)OC)cc(C(=O)OC)c1 | 25.1 µM [rising, single point]
O=C1C=C(N2CCN(c3ccccn3)CC2)C(=O)c2c(O)ccc(O)c21 | 3.16 µM [rising, partial curve]
CCOc1ccc(-c2noc(-c3ccncc3)n2)cc1OCC | 15.8 µM [rising, partial curve]
Oc1ccc(Cl)cc1Sc1cc(Cl)ccc1O | 15.8 µM [falling, partial curve, poor fit]
Cc1cccc(Cn2c(=O)n(Cc3ccco3)c(=O)c3ccccc32)c1 | 25.1 µM [rising, single point]
CCOc1ccc(CCN2C(=O)CCC2(C)C(=O)NC(C)CC)cc1OCC (stereo not drawn) | 12.6 µM [rising, partial curve]
Cc1sc2nc(SCC(=O)N(CCO)CCO)n(C3CCCCC3)c(=O)c2c1C | 12.6 µM [rising, partial curve]
COc1cccc(Cn2c(=O)c(C)nc3cnc(Nc4cccc(OC)c4)nc32)c1 | 12.6 µM [rising, partial curve]
c1csc(CNc2nc(-c3ccc4c(c3)OCO4)nc3ccccc23)c1 | 6.31 µM [rising, partial curve]
COc1ccc(C(=O)c2ccc(N(C)C)cc2)c(OC)c1 | 0.398 µM [falling, partial curve]
CN(C)c1ccc(NC(=O)CCCc2ccccc2)cc1 | 10 µM [falling, single point]
O=c1c2ccccc2nnn1CSc1nnc(-c2cccnc2)n1-c1ccccc1F | 0.0126 µM [falling, full curve, poor fit]
